In PubChem BioAssay AID1439 (NMMLSC, 2008):
In all, about 220,000 compounds went through this assay and about 770 (0.35%) were called active. The shares of active, inactive and inconclusive entries below differ from those in the screen. Cut-off read from the data, not from the text of the source: active = binding response below about 49% or above about 150%; inconclusive = no clear call, values can overlap the other calls; inactive = in between.

Amino acid sequences for entries named in this document (tags omitted).
UniProt P09471, whole entry, looked up: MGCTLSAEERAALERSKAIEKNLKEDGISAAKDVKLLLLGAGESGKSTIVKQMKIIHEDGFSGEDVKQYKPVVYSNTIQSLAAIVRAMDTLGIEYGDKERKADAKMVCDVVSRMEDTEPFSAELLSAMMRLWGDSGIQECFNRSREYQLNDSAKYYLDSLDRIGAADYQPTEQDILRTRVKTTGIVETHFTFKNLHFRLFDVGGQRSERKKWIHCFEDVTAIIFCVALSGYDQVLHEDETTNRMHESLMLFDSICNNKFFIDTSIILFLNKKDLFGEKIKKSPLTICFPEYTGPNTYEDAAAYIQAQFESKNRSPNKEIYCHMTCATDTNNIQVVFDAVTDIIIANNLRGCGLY

biological target: Guanine nucleotide-binding protein G(o) subunit alpha (Homo sapiens) (UniProt P09471); test: compounds changing RGS7 association with Galphao – biochemical, multiplexed bead flow cytometry, primary screen (AID 1439); conditions: at 10 µM, actives lie on both sides;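 note: fluorescent Galphao held in activated GDP-AlF4 state binding bead-coupled RGS7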

SMILES | binding response (% of control)
CC(C)(C)c1nc(NCc2ccc3c(c2)OCO3)c2nnn(Cc3ccccc3Cl)c2n1 | inactive: 102%
CN(C)CCN=Cc1c(O)n(-c2cccc3ccccc23)c(=O)[nH]c1=O | inactive: 105%
CCN(C(C)=O)c1cccc(-c2ccnc3c(C#N)cnn23)c1 | inactive: 103%
CCOc1ccc(Cc2c(O)[nH]c(=O)[nH]c2=O)cc1 | inactive: 99.4%
C=CCOC(=O)C1=C(C)OC(N)=C(C#N)C12C(=O)N(CN1CCOCC1)c1ccccc12 (configuration not stated) | inactive: 99.9%
CC1(C)C2SCC(=O)N2CCN1CC(=O)NN (configuration not stated) | inconclusive: 96.2%
CN1CCN(C(=O)Cc2ccccc2)CC1 | inconclusive: 121%
CC[N+](CC)(CC)CC | inconclusive: 89.5%
O=c1[nH]c(O)c(N=Nc2ccc(S(=O)(=O)N3CCOCC3)cc2)c(=O)[nH]1 | inactive: 97.3%
CC1CCSP(=O)(Oc2ccccc2)O1 (configuration not stated) | inconclusive: 209%
CN1Cc2c(c(C#N)c(N)n(C)c2=S)CC1(C)C | inactive: 96.4%
Cc1cc(NC(=O)CCl)on1 | inactive: 102%
O=C1NC(=O)N(c2ccccc2)C(=O)/C1=C\c1ccc([N+](=O)[O-])o1 | inconclusive: 110%
C=CCn1c(O)c(C(CC)=Nc2cccc(C(F)(F)F)c2)c(=O)[nH]c1=O | inconclusive: 85.3%
NC(=O)Cn1cc(C(=O)c2ccccc2F)c2ccccc21 | inconclusive: 119%
CCN(CC)P(=O)(Oc1ccccc1)Oc1ccccc1 | inconclusive: -44%
CC1(C)Cc2c(C#N)c(N3CCNCC3)nc(-c3ccco3)c2CS1 | inconclusive: -102%
COc1ccccc1OCC#CCN1CCCC1 | inconclusive: 82%
CCCC(=O)c1ccc(CP(=O)(OCC)OCC)o1 | inconclusive: 619%
CCC1(CC)C(=O)N(C)C(=O)NC1=NC | inconclusive: 674%
C=CCn1c(O)c(C=NCCN(C)C)c(=O)[nH]c1=O | inactive: 93%
CCCCn1c(O)c(/C=N/NC(=O)c2ccncc2)c(=O)[nH]c1=S | inconclusive: 104%
CCCCNC(=O)NC(C(N)=O)P(=O)(OCC)OCC (configuration not stated) | inconclusive: 1.52%
Cc1nn(CC(C)C)c(Cl)c1C(=O)O | inconclusive: 100%
COc1ccc(/C=C/C(=O)c2c(O)n(CCC3=CCCCC3)c(=O)[nH]c2=O)cc1OC | inconclusive: 107%
O=C(C(Cc1ccccc1)NS(=O)(=O)c1ccc(F)cc1)N1CCC2(CC1)OCCO2 (configuration not stated) | inactive: 103%
O=c1[nH]c(=S)n(-c2ccccc2)c(O)c1/C=N/N1CCCCC1c1cccnc1 (configuration not stated) | inconclusive: 105%
